This is one part of the list.
Columns and labels:
Assay in all cases: glycan array binding signal (z-score within array); higher = stronger binding
Conditions in all cases: glycan notation: IUPAC condensed, linker removed
[1] = molecular target: GlcNAc(b1-2)Gal(b1-3)GalNAc
Procedure, shortened: (§1)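 The binding signal is a Z-score computed within each array and averaged over linkers. Arrays of the same protein sequence at different concentrations or buffers were also averaged together. Data originate from 3228 arrays in the Consortium for Functional Glycomics database, kept only where the protein sequence was available.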

[2] = molecular target: GlcNAc(b1-2)Man(a1-3)[GlcNAc(b1-2)Man(a1-6)]Man(b1-4)GlcNAc(b1-4)GlcNAc
Procedure, shortened: as §1

[3] = molecular target: GlcNAc(b1-2)Man(a1-3)[GlcNAc(b1-2)Man(a1-6)]Man(b1-4)GlcNAc(b1-4)[Fuc(a1-6)]GlcNAc
Procedure, shortened: as §1

[4] = molecular target: GlcNAc(b1-2)Man(a1-3)[GlcNAc(b1-4)][GlcNAc(b1-2)Man(a1-6)]Man(b1-4)GlcNAc(b1-4)GlcNAc
Procedure, shortened: as §1

[5] = molecular target: GlcNAc(b1-2)Man(a1-3)[GlcNAc(b1-4)][GlcNAc(b1-2)Man(a1-6)]Man(b1-4)GlcNAc(b1-4)[Fuc(a1-6)]GlcNAc
Procedure, shortened: as §1

[6] = molecular target: GlcNAc(b1-2)[GlcNAc(b1-4)]Man(a1-3)[GlcNAc(b1-2)Man(a1-6)]Man(b1-4)GlcNAc(b1-4)GlcNAc
Procedure, shortened: as §1

[7] = molecular target: GlcNAc(b1-2)[GlcNAc(b1-4)]Man(a1-3)[GlcNAc(b1-4)][GlcNAc(b1-2)Man(a1-6)]Man(b1-4)GlcNAc(b1-4)GlcNAc
Procedure, shortened: as §1

[8] = molecular target: GlcNAc(b1-2)[GlcNAc(b1-4)]Man(a1-3)[GlcNAc(b1-4)][GlcNAc(b1-2)[GlcNAc(b1-6)]Man(a1-6)]Man(b1-4)GlcNAc(b1-4)GlcNAc
Procedure, shortened: as §1

[9] = molecular target: GlcNAc(b1-2)[GlcNAc(b1-4)]Man(a1-3)[GlcNAc(b1-4)][GlcNAc(b1-2)[GlcNAc(b1-6)]Man(a1-6)]Man(b1-4)GlcNAc(b1-4)[Fuc(a1-6)]GlcNAc
Procedure, shortened: as §1

[10] = molecular target: GlcNAc(b1-2)[GlcNAc(b1-6)]Man(a1-6)[GlcNAc(b1-2)Man(a1-3)]Man(b1-4)GlcNAc(b1-4)GlcNAc
Procedure, shortened: as §1

[11] = molecular target: GlcNAc(b1-2)[GlcNAc(b1-6)]Man(a1-6)[GlcNAc(b1-2)Man(a1-3)]Man(b1-4)GlcNAc(b1-4)[Fuc(a1-6)]GlcNAc
Procedure, shortened: as §1

[12] = molecular target: GlcNAc(b1-2)[GlcNAc(b1-6)]Man(a1-6)[GlcNAc(b1-4)][GlcNAc(b1-2)Man(a1-3)]Man(b1-4)GlcNAc(b1-4)GlcNAc
Procedure, shortened: as §1

[13] = molecular target: GlcNAc(b1-3)Fuc
Procedure, shortened: as §1

[14] = molecular target: GlcNAc(b1-3)Gal
Procedure, shortened: as §1

[15] = molecular target: GlcNAc(b1-3)Gal(b1-3)GalNAc
Procedure, shortened: as §1

[16] = molecular target: GlcNAc(b1-3)Gal(b1-4)Glc
Procedure, shortened: as §1

[17] = molecular target: GlcNAc(b1-3)Gal(b1-4)GlcNAc
Procedure, shortened: as §1

[18] = molecular target: GlcNAc(b1-3)Gal(b1-4)GlcNAc(b1-2)Man(a1-3)[GlcNAc(b1-3)Gal(b1-4)GlcNAc(b1-2)Man(a1-6)]Man(b1-4)GlcNAc(b1-4)GlcNAc
Procedure, shortened: as §1

[19] = molecular target: GlcNAc(b1-3)Gal(b1-4)GlcNAc(b1-2)Man(a1-3)[GlcNAc(b1-3)Gal(b1-4)GlcNAc(b1-2)Man(a1-6)]Man(b1-4)GlcNAc(b1-4)[Fuc(a1-6)]GlcNAc
Procedure, shortened: as §1

[20] = molecular target: GlcNAc(b1-3)Gal(b1-4)GlcNAc(b1-2)[GlcNAc(b1-3)Gal(b1-4)GlcNAc(b1-6)]Man(a1-6)[GlcNAc(b1-3)Gal(b1-4)GlcNAc(b1-2)Man(a1-3)]Man(b1-4)GlcNAc(b1-4)GlcNAc
Procedure, shortened: as §1

[21] = molecular target: GlcNAc(b1-3)Gal(b1-4)GlcNAc(b1-3)Gal(b1-4)GlcNAc
Procedure, shortened: as §1

[22] = molecular target: GlcNAc(b1-3)Gal(b1-4)GlcNAc(b1-3)Gal(b1-4)GlcNAc(b1-2)Man(a1-3)[GlcNAc(b1-3)Gal(b1-4)GlcNAc(b1-3)Gal(b1-4)GlcNAc(b1-2)Man(a1-6)]Man(b1-4)GlcNAc(b1-4)GlcNAc
Procedure, shortened: as §1

[23] = molecular target: GlcNAc(b1-3)Gal(b1-4)GlcNAc(b1-3)Gal(b1-4)GlcNAc(b1-2)Man(a1-3)[GlcNAc(b1-3)Gal(b1-4)GlcNAc(b1-3)Gal(b1-4)GlcNAc(b1-2)Man(a1-6)]Man(b1-4)GlcNAc(b1-4)[Fuc(a1-6)]GlcNAc
Procedure, shortened: as §1

[24] = molecular target: GlcNAc(b1-3)Gal(b1-4)GlcNAc(b1-3)Gal(b1-4)GlcNAc(b1-2)[GlcNAc(b1-3)Gal(b1-4)GlcNAc(b1-3)Gal(b1-4)GlcNAc(b1-6)]Man(a1-6)[GlcNAc(b1-3)Gal(b1-4)GlcNAc(b1-3)Gal(b1-4)GlcNAc(b1-2)Man(a1-3)]Man(b1-4)GlcNAc(b1-4)[Fuc(a1-6)]GlcNAc
Procedure, shortened: as §1

[25] = molecular target: GlcNAc(b1-3)Gal(b1-4)GlcNAc(b1-3)Gal(b1-4)GlcNAc(b1-3)Gal(b1-4)GlcNAc(b1-2)Man(a1-3)[GlcNAc(b1-3)Gal(b1-4)GlcNAc(b1-3)Gal(b1-4)GlcNAc(b1-3)Gal(b1-4)GlcNAc(b1-2)Man(a1-6)]Man(b1-4)GlcNAc(b1-4)GlcNAc
Procedure, shortened: as §1

[26] = molecular target: GlcNAc(b1-3)Gal(b1-4)GlcNAc(b1-3)Gal(b1-4)GlcNAc(b1-3)Gal(b1-4)GlcNAc(b1-2)Man(a1-3)[GlcNAc(b1-3)Gal(b1-4)GlcNAc(b1-3)Gal(b1-4)GlcNAc(b1-3)Gal(b1-4)GlcNAc(b1-2)Man(a1-6)]Man(b1-4)GlcNAc(b1-4)[Fuc(a1-6)]GlcNAc
Procedure, shortened: as §1

[27] = molecular target: GlcNAc(b1-3)Gal(b1-4)GlcNAc(b1-3)Gal(b1-4)GlcNAc(b1-3)Gal(b1-4)GlcNAc(b1-2)[GlcNAc(b1-3)Gal(b1-4)GlcNAc(b1-3)Gal(b1-4)GlcNAc(b1-3)Gal(b1-4)GlcNAc(b1-6)]Man(a1-6)[GlcNAc(b1-3)Gal(b1-4)GlcNAc(b1-3)Gal(b1-4)GlcNAc(b1-3)Gal(b1-4)GlcNAc(b1-2)Man(a1-3)]Man(b1-4)GlcNAc(b1-4)[Fuc(a1-6)]GlcNAc
Procedure, shortened: as §1

[28] = molecular target: GlcNAc(b1-3)Gal(b1-4)GlcNAc(b1-3)Gal(b1-4)GlcNAc(b1-3)Gal(b1-4)GlcNAc(b1-3)Gal(b1-4)GlcNAc(b1-2)Man(a1-3)[GlcNAc(b1-3)Gal(b1-4)GlcNAc(b1-3)Gal(b1-4)GlcNAc(b1-3)Gal(b1-4)GlcNAc(b1-3)Gal(b1-4)GlcNAc(b1-2)Man(a1-6)]Man(b1-4)GlcNAc(b1-4)GlcNAc
Procedure, shortened: as §1

[29] = molecular target: GlcNAc(b1-3)Gal(b1-4)GlcNAc(b1-3)Gal(b1-4)GlcNAc(b1-3)Gal(b1-4)GlcNAc(b1-3)Gal(b1-4)GlcNAc(b1-2)Man(a1-3)[GlcNAc(b1-3)Gal(b1-4)GlcNAc(b1-3)Gal(b1-4)GlcNAc(b1-3)Gal(b1-4)GlcNAc(b1-3)Gal(b1-4)GlcNAc(b1-2)Man(a1-6)]Man(b1-4)GlcNAc(b1-4)[Fuc(a1-6)]GlcNAc
Procedure, shortened: as §1

[30] = molecular target: GlcNAc(b1-3)Gal(b1-4)GlcNAc(b1-3)Gal(b1-4)GlcNAc(b1-3)Gal(b1-4)GlcNAc(b1-3)Gal(b1-4)GlcNAc(b1-2)[GlcNAc(b1-3)Gal(b1-4)GlcNAc(b1-3)Gal(b1-4)GlcNAc(b1-3)Gal(b1-4)GlcNAc(b1-3)Gal(b1-4)GlcNAc(b1-6)]Man(a1-6)[GlcNAc(b1-3)Gal(b1-4)GlcNAc(b1-3)Gal(b1-4)GlcNAc(b1-3)Gal(b1-4)GlcNAc(b1-3)Gal(b1-4)GlcNAc(b1-2)Man(a1-3)]Man(b1-4)GlcNAc(b1-4)[Fuc(a1-6)]GlcNAc
Procedure, shortened: as §1

B1: Awp1 (Candida glabrata) (protein)
chain: MSLITIFAFLIKATLVLSLDILTPTTLTGDQTFNEDVSVVSSLTLNDGSQYLFNNLLQIAPSSASVTANALAAVSVFTFSLPPSSSLSNSGTLIISNSNTGPSTEQHIVITPNVMANTGTITLSLAHTNTDSSSTLIIDPVTFYNTGTINYESIGSETNDPSLTGNILSIGSSGRTLQNLGTINLNAANSYYLLGTITENSGSINVQKGFLYVNALDFIGNTINLSTTTALAFISPVSQVVRVRGVFFGNIIASVGSSGTFSYNTQTGILTVTTNGVYSYDIGCGYNPALMSGQQETLSFQGNPYDTFLVLVNQPIPSDLTCAAVSSSITPSSSVEPSSSVVPSSSVEPSSSVEPSSSVEPSSSVEPSSSVEPSSSVEPSSSVEPSSSVEPSSSVEPSSSVEPSSSVEPSSSVEPSSSVEPSSSVEPSSSVEPSSSVEPSSSVEPSSSVEPSSSVEPSSLIVPSSSVEPSSSVLPSSSVVPSSSVEPSTPPIPSSSVEPSSSVVPSSPAVPSSSVEPSTPPIPSSSVVSASVFDTSSTLPSSPSVPPSSVSPSTISTPSSSAAPSSFCPTCVSSGTPPAPSSSAIVPTSSAGGGNGGDNREPGAAGQPGAAGQPGAAGQPGAAGQPGAAGQPGAAGQPGAAGQPGAAGQPGAAGQPGAAGQPGAGFGVGSEQPTPGAGAGSGSADGNQSGTGSGTGNGQQGSGQAGSGQAGSGQEGSGQAGSGQAGSGQAGSGQAGSGQAGLDNTASGQSEGGQASAMDGDQSGRDGQSNSGSLLQPNAQQGTGSGTGSDIGADQASGESPGQIGDAQPGSGTDQSSGRHSLAAEARTSQSHSLAADARTRSTTRQTSVIAPDTAPGTASGTAPGTAPGTAVVTTFHGCGTVNHKGMINILLALALLVLL
- glycan array binding signal (z-score) [1]: -0.741
- glycan array binding signal (z-score) [2]: -0.809
- glycan array binding signal (z-score) [3]: 0.731
- glycan array binding signal (z-score) [4]: -1.09
- glycan array binding signal (z-score) [5]: 1.35
- glycan array binding signal (z-score) [6]: 0.152
- glycan array binding signal (z-score) [7]: 0.047
- glycan array binding signal (z-score) [8]: -1.03
- glycan array binding signal (z-score) [9]: -0.535
- glycan array binding signal (z-score) [10]: 0.964
- glycan array binding signal (z-score) [11]: -0.571
- glycan array binding signal (z-score) [12]: -1
- glycan array binding signal (z-score) [13]: -0.414
- glycan array binding signal (z-score) [14]: -0.929
- glycan array binding signal (z-score) [15]: 2.02
- glycan array binding signal (z-score) [16]: 1.19
- glycan array binding signal (z-score) [17]: -0.055
- glycan array binding signal (z-score) [18]: -0.178
- glycan array binding signal (z-score) [19]: -0.465
- glycan array binding signal (z-score) [20]: 0.166
- glycan array binding signal (z-score) [21]: 0.214
- glycan array binding signal (z-score) [22]: -0.505
- glycan array binding signal (z-score) [23]: 0.243
- glycan array binding signal (z-score) [24]: 0.68
- glycan array binding signal (z-score) [25]: 2
- glycan array binding signal (z-score) [26]: 0.251
- glycan array binding signal (z-score) [27]: 2.24
- glycan array binding signal (z-score) [28]: 0.222
- glycan array binding signal (z-score) [29]: 0.535
- glycan array binding signal (z-score) [30]: 0.405

Reference: the supplement of paper PMC8728848
